No constants are given. Whether binding was seen depends on the method and setting. Binding seen in cells or lysates may run through a third protein. Where a sequence is shown, tags or fusion partners need not be part of it.
Key:
FLAG-ERLIN1 = target: T1, FLAG-ERLIN1 (UniProt O75477); assay: co-IP; FLAG-tagged bait and tagged prey co-expressed in HEK 293T cells; lysis in 1% deoxy Big CHAP or 1% Triton X-100 at 4 °C; M2 FLAG beads 2 h at 4 °C; eluted with 3xFLAG peptide; immunoblot (in Fig. 6e from Beclin1 siRNA cells, eluate then run on a sucrose gradient)
T1 sequence: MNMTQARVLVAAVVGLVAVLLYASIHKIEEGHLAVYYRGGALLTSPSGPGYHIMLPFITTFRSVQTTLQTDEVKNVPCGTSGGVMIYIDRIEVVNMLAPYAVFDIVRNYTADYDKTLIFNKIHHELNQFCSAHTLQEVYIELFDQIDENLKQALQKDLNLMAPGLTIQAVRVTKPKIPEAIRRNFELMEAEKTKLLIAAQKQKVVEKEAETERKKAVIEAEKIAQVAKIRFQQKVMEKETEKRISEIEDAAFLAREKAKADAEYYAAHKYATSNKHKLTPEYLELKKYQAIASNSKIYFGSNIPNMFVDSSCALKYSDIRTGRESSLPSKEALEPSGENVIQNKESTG

FLAG-PGRMC2 = target: T2, FLAG-PGRMC2 (UniProt O15173); assay: as above
T2 sequence: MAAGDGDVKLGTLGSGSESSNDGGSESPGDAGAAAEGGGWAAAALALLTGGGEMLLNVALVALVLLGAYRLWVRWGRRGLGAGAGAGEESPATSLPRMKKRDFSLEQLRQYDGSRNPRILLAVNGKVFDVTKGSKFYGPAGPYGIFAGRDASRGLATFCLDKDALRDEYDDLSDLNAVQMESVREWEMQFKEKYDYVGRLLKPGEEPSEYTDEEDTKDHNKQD

binding (FLAG-ERLIN1)	binding (FLAG-PGRMC2)	Substance
no binding	no binding	C28F-POMC-Myc
no binding	–	L105(A16)P-Myc MIDY mutant proinsulin (human)

Reference: paper PMC8514460
